The match of structure and compound is tentative.

By UniProt entry, the sequences of proteins in these tests, tags left out.
UniProt P43490, whole entry: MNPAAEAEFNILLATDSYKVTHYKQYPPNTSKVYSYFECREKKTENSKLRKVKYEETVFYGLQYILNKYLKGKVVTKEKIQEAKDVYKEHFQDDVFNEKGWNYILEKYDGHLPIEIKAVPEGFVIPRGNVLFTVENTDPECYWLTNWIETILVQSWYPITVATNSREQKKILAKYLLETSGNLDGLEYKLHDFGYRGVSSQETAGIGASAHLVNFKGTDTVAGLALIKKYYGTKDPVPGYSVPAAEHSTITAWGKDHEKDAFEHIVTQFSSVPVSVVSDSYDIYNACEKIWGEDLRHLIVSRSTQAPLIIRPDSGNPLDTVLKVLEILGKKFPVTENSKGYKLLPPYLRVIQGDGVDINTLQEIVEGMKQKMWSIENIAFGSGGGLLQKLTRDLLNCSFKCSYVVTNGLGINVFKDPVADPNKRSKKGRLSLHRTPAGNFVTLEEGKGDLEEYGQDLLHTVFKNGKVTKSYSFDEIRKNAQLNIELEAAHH

In one assay the target is Recombinant NAMPT enzyme (Homo sapiens, UniProt P43490). The experiment in a line: Inhibition of NAMPT enzymatic activity. The settings on record: read-out: NAMPT IC50; 6 hours at 37° C., NMN product detected. The method, then:
Recombinant NAMPT enzyme (MBL) was briefly pre-incubated in the absence or presence of inhibitor followed by addition of nicotinamide. Enzymatic reaction was allowed to proceed for 6 hours at 37° C. Reaction was terminated and NMN reaction product detected using the method as described in: Zhang R Y, Qin Y, Lv X Q, Wang P, Xu T Y, Zhang L, Miao C Y., Anal. Biochem. 2011 May 1; 412(1):18-25.
(§1) The 50% inhibitory concentration (IC50) is the concentration at which 50% of the maximal activity was inhibited.

For a further assay, the system named is primary human B cells. The experiment in a line: Anti-proliferative activity on B cells (anti-IgM stimulated, CellTiterGlo). The settings on record: read-out: B CELL IC50; anti-IgM 10 ug/ml, 72 hours. The method, then: Fresh primary human B cells obtained from Analytical Biological Services (Wilmington, Del.) were diluted to 1×10^^6 cells per ml in AIM-V medium (Invitrogen), and stimulated with anti-IgM (10 ug/ml) (KPL) in the absence or presence of inhibitor for 72 hours at 37° C./5% CO2 prior to viability determination using CellTiterGlo (Promega) per manufacturer's instruction.
as §1
Background: ATP-based viability assays read luminescence as a measure of living cells.

The subject of the next assay is primary human T cells. Kind of assay: Anti-proliferative activity on T cells (CD3/CD28 stimulated, CellTiterGlo). Conditions: read-out: T CELL IC50; CD3/CD28 beads, 72 hours. The method, then:
Fresh primary human T cells obtained from Analytical Biological Services (Wilmington, Del.) were diluted to 1×10^^6 cells per ml in AIM-V medium (Invitrogen), and stimulated with CD3/CD28 beads (Invitrogen) in the absence or presence of inhibitor for 72 hours at 37° C./5% CO2 prior to viability determination using CellTiterGlo (Promega) per manufacturer's instruction.
as §1

In assay [1] the test system is acute T-cell leukemia (JURKAT). The experiment in a line: Anti-proliferative activity on JURKAT cell line. Conditions: read-out: Anti-Proliferative Activity JURKAT; 72 hours, CellTiterGlo. The method, then:
(§2) Leukemia/Lymphoma cell lines (ATCC) were diluted in vendor-recommended media and incubated in the absence or presence of inhibitor for 72 hours at 37° C./5% CO2 prior to viability determination using CellTiterGlo (Promega) per manufacturer's instruction. The human cell lines studied include acute T-cell leukemia (JURKAT), chronic myelogenous leukemia (K562), and B-cell acute lymphocytic leukemia (NALM6 and SUP-B15).

In assay [2] the test system is chronic myelogenous leukemia (K562). The experiment in a line: Anti-proliferative activity on K562 cell line. Conditions: read-out: Anti-Proliferative Activity K562; 72 hours, CellTiterGlo. The method, then: as §2
The test system of assay [3] is B-cell acute lymphocytic leukemia (NALM6). The experiment in a line: Anti-proliferative activity on NALM6 cell line. Conditions: read-out: Anti-Proliferative Activity NALM6; 72 hours, CellTiterGlo. The method, then: as §2
Assay [4] has as its system B-cell acute lymphocytic leukemia (SUP-B15). Kind of assay: Anti-proliferative activity on SUP-B15 cell line. The settings on record: read-out: Anti-Proliferative Activity SUP-B15; 72 hours, CellTiterGlo. The method, then: as §2

In the case of `CC(C)CCN1CCC2(CC1)CC(=O)c1nc(-c3ccc(C(=O)NCc4cncc(F)c4)cc3)ccc1O2`, the IC50 at Recombinant NAMPT enzyme turned out to be 127 nM; in the assay with primary human B cells it was 107 nM; with primary human T cells, 9670 nM; in assay [1] it was 203 nM; in assay [2], 822 nM; in assay [3] it was 174 nM. Moreover, the IC50 in assay [4] amounted to 12.9 nM.
In the case of `Cc1cc(CNC(=O)c2ccc(-c3ccc4c(c3)C(=O)NC3(CCN(C(C)C)CC3)O4)cc2)on1`, the IC50 at Recombinant NAMPT enzyme stood at 4 nM; in the assay on primary human B cells, 33.4 nM; with primary human T cells, 5680 nM; in assay [1] it was 42.1 nM; in assay [2], 350 nM; in assay [3] it was 23.6 nM. Moreover, the IC50 in assay [4] came to 4.11 nM.
As to `Cc1cc(CNC(=O)c2ccc(-c3ccc4c(c3)C(=O)N(C)C3(CCN(C(C)C)CC3)O4)nc2)on1`, the IC50 was found to be 2 nM at Recombinant NAMPT enzyme; 9.5 nM in the assay on primary human B cells; 1180 nM with primary human T cells; 16.6 nM in assay [1]; 47.6 nM in assay [2]; 6.14 nM in assay [3]. The IC50 in assay [4] was determined as 1.51 nM.

Values taken from patent publication US10017523B2, “NAMPT inhibitors and methods” (Genzyme Corporation, priority 2014, dated 2018).
